Results are given in words; binding and its absence hold for the method and conditions named. Binding seen in cells or lysates may run through a third protein. Some results given as binding are weak or reduced against the parent protein; the word gives no strength. Sequences can lack the tags named with a protein.
T1: sfGFP-Vps68 (yeast) (UniProt Q12016)
T1 sequence: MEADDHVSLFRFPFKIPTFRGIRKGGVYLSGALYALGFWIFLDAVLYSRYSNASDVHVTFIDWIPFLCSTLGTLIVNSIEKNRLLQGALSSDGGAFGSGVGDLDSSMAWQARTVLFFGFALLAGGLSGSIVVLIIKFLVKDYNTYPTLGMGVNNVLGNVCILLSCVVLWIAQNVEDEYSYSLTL

T2: Snf7-6His (yeast), P39929
T2 chain: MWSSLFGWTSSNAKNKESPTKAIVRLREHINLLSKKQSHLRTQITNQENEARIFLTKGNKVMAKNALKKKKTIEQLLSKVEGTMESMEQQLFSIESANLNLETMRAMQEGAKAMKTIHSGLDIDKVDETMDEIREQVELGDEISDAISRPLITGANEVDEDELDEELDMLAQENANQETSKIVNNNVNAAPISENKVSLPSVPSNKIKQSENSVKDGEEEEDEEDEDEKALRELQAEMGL


Legend:
[1] = biological target: T1, sfGFP-Vps68 (yeast); experiment: co-IP
[2] = biological target: T2, Snf7-6His (yeast), P39929; experiment: pull-down; settings: remark: other sources report otherwise

Binder	binding [1]	binding [2]
Snf7 (protein, UniProt P39929 1-240) MWSSLFGWTSSNAKNKESPTKAIVRLREHINLLSKKQSHLRTQITNQENEARIFLTKGNKVMAKNALKKKKTIEQLLSKVEGTMESMEQQLFSIESANLNLETMRAMQEGAKAMKTIHSGLDIDKVDETMDEIREQVELGDEISDAISRPLITGANEVDEDELDEELDMLAQENANQETSKIVNNNVNAAPISENKVSLPSVPSNKIKQSENSVKDGEEEEDEEDEDEKALRELQAEMGL	binds	–
Vps2, P36108 1-232 (protein) MSLFEWVFGKNVTPQERLKKNQRALERTQRELEREKRKLELQDKKLVSEIKKSAKNGQVAAAKVQAKDLVRTRNYIQKFDNMKAQLQAISLRIQAVRSSDQMTRSMSEATGLLAGMNRTMNLPQLQRISMEFEKQSDLMGQRQEFMDEAIDNVMGDEVDEDEEADEIVNKVLDEIGVDLNSQLQSTPQNLVSNAPIAETAMGIPEPIGAGSEFHGNPDDDLQARLNTLKKQT	–	no binding
Vps24, P36095 1-224 (protein) MDYIKKAIWGPDPKEQQRRIRSVLRKNGRNIEKSLRELTVLQNKTQQLIKKSAKKNDVRTVRLYAKELYQINKQYDRMYTSRAQLDSVRMKIDEAIRMNTLSNQMADSAGLMREVNSLVRLPQLRNTMIELEKELMKSGIISEMVDDTMESVGDVGEEMDEAVDEEVNKIVEQYTNEKFKNVDQVPTVELAANEEEQEIPDEKVDEEADRMVNEMRERLRALQN	–	no binding
Did2, P69771 1-204 (protein) MSRNSAAGLENTLFQLKFTSKQLQKQANKASKEEKQETNKLKRALNENEDISRIYASNAIRKKNERLQLLKLASRVDSVASRVQTAVTMRQVSASMGQVCKGMDKALQNMNLQQITMIMDKFEQQFEDLDTSVNVYEDMGVNSDAMLVDNDKVDELMSKVADENGMELKQSAKLDNVPEIKAKEVNVDDEKEDKLAQRLRALRG	–	no binding
